# Assay results as given in the supplement of paper PMC7666118.
# Chains of the proteins cited; added tags and fusions are not shown. Lines headed by an entry give the natural chain unless they say otherwise; changes in a name come on top.
# UniProt Q7LGA3: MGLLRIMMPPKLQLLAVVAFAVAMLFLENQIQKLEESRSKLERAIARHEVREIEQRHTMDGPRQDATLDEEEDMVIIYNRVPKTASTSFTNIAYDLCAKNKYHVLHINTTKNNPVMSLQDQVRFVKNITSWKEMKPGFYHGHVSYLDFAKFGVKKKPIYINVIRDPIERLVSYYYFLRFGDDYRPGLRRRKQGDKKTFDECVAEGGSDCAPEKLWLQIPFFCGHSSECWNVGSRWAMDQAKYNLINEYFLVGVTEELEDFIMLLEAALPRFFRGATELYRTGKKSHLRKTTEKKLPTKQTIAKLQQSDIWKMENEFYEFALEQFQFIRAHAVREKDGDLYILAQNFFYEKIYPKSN
# UniProt P57764: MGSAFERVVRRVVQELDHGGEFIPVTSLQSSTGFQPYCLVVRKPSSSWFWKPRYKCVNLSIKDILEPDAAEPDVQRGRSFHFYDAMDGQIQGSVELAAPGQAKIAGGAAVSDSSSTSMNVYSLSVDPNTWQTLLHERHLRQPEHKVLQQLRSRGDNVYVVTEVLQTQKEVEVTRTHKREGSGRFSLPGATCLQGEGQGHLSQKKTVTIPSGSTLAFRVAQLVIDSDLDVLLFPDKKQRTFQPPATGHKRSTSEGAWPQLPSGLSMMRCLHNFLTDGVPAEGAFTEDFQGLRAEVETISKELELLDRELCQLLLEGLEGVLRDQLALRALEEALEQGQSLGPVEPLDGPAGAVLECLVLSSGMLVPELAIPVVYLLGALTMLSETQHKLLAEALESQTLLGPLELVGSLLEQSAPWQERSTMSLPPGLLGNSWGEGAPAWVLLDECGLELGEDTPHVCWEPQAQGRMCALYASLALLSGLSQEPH
# UniProt P15586: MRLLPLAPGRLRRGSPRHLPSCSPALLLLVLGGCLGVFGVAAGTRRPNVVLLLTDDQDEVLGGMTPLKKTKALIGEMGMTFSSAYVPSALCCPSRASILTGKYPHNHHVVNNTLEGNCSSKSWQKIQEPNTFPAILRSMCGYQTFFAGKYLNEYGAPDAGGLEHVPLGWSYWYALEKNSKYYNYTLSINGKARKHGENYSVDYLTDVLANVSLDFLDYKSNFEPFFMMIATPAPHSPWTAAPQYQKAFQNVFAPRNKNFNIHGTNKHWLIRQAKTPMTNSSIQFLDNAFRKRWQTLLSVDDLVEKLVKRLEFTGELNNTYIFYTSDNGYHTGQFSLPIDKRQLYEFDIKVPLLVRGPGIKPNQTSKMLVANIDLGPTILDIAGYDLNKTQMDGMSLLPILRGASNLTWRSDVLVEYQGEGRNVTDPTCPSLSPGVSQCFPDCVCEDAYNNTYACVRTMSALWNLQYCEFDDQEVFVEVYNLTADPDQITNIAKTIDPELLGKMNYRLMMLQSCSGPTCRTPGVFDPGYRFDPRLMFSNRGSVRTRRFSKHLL
# UniProt Q12849: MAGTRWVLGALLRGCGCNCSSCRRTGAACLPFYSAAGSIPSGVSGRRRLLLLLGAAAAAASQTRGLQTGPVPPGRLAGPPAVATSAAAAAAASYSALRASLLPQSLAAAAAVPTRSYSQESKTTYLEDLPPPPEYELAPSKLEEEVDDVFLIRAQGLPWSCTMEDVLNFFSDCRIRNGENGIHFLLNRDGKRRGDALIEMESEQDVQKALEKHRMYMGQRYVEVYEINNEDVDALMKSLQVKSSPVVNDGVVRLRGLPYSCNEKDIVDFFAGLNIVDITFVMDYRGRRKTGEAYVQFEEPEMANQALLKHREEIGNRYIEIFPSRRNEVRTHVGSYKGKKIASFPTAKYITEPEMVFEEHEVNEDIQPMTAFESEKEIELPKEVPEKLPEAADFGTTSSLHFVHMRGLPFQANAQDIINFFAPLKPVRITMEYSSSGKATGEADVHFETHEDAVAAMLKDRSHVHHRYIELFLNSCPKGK
# UniProt Q969S8: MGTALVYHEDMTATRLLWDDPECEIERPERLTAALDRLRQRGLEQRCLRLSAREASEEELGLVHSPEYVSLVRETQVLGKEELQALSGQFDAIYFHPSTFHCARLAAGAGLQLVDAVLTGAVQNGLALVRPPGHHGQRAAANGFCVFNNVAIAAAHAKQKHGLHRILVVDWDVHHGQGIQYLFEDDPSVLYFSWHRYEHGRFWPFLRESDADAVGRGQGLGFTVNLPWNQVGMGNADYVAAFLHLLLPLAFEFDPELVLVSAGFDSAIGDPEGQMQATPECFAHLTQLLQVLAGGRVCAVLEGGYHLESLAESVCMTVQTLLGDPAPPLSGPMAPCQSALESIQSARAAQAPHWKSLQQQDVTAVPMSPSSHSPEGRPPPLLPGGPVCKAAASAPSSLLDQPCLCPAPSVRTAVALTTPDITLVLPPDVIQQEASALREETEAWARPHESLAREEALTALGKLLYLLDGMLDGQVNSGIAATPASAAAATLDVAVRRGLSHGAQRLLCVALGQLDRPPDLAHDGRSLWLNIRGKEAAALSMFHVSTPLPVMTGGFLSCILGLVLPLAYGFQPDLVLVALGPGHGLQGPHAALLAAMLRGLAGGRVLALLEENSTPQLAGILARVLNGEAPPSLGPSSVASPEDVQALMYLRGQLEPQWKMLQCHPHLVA
# UniProt O14929: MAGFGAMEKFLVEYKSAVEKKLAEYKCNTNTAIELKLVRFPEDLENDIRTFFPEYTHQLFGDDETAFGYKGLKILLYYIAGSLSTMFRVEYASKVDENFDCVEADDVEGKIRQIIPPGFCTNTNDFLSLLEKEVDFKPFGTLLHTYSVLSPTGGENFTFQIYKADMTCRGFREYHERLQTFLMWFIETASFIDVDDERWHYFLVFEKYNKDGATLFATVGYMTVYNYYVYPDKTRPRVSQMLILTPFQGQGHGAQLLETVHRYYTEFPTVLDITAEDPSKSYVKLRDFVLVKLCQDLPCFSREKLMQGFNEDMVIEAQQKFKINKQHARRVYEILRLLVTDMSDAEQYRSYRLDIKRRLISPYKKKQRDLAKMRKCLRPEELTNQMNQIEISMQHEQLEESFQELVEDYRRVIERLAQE
# UniProt Q6PFW1: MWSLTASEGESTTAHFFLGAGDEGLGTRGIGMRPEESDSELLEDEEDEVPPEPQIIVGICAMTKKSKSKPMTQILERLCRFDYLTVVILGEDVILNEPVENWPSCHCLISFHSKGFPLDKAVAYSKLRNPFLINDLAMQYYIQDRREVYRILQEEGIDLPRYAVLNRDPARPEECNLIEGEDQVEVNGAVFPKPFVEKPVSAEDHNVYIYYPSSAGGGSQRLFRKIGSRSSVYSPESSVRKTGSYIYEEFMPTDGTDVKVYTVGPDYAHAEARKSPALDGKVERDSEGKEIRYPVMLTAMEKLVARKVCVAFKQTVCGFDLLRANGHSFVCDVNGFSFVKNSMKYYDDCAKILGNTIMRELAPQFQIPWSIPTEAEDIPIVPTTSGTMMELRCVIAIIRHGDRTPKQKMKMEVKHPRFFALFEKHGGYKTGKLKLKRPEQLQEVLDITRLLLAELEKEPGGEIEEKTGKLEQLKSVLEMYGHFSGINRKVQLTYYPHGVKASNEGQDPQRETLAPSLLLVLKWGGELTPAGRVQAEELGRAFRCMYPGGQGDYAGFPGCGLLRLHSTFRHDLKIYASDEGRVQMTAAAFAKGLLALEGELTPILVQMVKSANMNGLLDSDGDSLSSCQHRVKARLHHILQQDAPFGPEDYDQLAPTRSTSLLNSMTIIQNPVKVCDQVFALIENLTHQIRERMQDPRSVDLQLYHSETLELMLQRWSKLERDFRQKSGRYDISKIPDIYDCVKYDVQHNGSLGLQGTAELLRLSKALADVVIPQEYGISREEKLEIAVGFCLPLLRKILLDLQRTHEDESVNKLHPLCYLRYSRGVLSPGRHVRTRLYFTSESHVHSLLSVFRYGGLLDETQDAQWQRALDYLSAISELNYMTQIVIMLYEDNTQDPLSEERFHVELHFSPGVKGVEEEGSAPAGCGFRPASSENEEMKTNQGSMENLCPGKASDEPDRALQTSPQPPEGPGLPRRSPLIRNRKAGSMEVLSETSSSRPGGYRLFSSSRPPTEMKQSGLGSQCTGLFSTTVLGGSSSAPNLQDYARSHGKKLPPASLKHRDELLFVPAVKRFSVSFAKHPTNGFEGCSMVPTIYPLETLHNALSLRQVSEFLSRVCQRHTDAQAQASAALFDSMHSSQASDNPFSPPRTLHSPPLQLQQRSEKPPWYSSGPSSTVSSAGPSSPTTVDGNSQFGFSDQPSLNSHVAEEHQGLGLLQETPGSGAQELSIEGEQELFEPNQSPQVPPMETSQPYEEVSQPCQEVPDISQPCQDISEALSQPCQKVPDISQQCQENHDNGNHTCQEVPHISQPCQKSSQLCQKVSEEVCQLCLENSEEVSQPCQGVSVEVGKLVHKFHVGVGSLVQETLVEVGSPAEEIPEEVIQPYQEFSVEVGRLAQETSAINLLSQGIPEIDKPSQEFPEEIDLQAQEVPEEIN
# UniProt Q9NQE9: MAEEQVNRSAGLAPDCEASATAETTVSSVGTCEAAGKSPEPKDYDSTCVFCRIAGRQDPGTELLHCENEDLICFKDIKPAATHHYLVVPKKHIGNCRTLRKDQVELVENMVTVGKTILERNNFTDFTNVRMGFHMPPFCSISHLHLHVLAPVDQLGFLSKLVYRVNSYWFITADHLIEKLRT
# UniProt O95757: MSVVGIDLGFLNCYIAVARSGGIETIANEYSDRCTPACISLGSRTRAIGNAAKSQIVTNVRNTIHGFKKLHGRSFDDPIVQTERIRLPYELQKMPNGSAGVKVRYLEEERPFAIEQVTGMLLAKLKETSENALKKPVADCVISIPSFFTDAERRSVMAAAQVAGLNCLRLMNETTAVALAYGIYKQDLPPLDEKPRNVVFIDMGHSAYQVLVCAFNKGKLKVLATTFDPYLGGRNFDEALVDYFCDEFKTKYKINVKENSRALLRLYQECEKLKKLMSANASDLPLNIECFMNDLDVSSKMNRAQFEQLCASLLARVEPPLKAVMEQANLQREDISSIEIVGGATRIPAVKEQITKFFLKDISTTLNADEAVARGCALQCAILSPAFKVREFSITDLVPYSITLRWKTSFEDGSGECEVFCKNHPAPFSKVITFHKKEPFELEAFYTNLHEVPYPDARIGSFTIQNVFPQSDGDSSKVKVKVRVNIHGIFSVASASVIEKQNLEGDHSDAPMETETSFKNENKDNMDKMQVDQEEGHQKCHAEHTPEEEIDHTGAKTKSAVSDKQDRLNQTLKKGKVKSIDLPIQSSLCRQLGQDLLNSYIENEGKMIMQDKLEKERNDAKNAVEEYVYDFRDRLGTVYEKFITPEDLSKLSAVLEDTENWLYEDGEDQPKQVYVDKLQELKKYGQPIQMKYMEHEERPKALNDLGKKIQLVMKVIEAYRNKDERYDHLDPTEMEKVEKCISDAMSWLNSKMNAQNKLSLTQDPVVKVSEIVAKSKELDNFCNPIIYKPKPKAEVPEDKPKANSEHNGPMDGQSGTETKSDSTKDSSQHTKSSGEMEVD
# UniProt O14653: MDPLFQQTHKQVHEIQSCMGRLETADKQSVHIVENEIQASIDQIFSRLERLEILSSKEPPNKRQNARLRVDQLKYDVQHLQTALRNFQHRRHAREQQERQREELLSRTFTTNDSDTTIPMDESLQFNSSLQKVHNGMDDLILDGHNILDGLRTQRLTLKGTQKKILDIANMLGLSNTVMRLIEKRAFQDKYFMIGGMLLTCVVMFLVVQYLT
# UniProt Q9BT25: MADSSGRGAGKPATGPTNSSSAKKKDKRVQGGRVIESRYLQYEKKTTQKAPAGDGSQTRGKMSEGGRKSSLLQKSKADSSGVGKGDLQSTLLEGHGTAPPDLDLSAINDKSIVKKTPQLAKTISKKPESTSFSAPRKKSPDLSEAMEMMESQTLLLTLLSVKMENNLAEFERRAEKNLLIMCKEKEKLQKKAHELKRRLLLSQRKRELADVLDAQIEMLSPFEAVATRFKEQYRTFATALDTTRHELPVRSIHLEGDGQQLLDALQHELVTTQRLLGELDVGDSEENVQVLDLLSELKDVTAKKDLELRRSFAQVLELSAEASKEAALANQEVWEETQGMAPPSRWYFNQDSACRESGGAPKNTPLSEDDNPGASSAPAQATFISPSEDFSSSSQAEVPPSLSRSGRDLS
# UniProt Q9BW72: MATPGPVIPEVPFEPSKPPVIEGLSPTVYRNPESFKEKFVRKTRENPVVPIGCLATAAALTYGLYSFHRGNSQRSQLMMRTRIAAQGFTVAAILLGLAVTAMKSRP
# UniProt P56937: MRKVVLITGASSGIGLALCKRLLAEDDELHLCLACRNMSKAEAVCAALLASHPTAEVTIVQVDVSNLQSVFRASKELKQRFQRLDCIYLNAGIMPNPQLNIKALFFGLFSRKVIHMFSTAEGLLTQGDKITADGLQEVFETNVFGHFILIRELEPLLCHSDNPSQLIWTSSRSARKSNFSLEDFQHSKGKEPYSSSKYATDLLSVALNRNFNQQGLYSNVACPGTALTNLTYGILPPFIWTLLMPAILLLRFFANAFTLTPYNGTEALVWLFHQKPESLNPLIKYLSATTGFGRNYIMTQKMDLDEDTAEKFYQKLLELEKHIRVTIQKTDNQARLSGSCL
# The other results are listed elsewhere or left out.
# Compound: COc1ccc(Cn2ccc3cc(C)c(C(=O)NO)cc32)cc1
# Assay: dose-dependent thermal stabilisation call (2D-TPP, DLPTP, 10% FDR) (binary (1 = stabilised)); higher = stabilised by the compound
# Conditions: system: HL-60 intact cells; concentration range 0.04-10 µM
# Procedure: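 2D thermal proteome profiling in intact HL-60 cells treated with BRD-3811 (0, 0.04, 0.29, 2, 10 uM) for 90 min at 37 C, then heated 3 min at one of 12 temperatures (42-63.9 C). Soluble protein was quantified by TMT10 MS. The value is the DLPTP call of the paper: dose-dependent thermal stabilisation over all temperatures at 10% FDR (F-test of a dose-response against a flat model); one experiment, one call per tested protein.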
row,Target,dose-dependent thermal stabilisation call
1,HS2ST1 (UniProt Q7LGA3),inactive: 0
2,HS1BP3 (UniProt Q53T59),inactive: 0
3,HIRA (UniProt P54198),inactive: 0
4,GZMA (UniProt P12544),inactive: 0
5,GSDMD (UniProt P57764),inactive: 0
6,GSE1 (UniProt Q14687),inactive: 0
7,HSF1 (UniProt Q00613),inactive: 0
8,GNS (UniProt P15586),inactive: 0
9,HPS4 (UniProt Q9NQG7),inactive: 0
10,GOLIM4 (UniProt O00461),inactive: 0
11,HERPUD1 (UniProt Q15011),inactive: 0
12,HBB (UniProt P68871),inactive: 0
13,HBXIP (UniProt O43504),inactive: 0
14,GRSF1 (UniProt Q12849),inactive: 0
15,HNRNPH3 (UniProt P31942),inactive: 0
16,HDAC10 (UniProt Q969S8),inactive: 0
17,HSPD1 (UniProt P10809),active: 1
18,GPR180 (UniProt Q86V85),inactive: 0
19,GTF3C2 (UniProt Q8WUA4),inactive: 0
20,HAT1 (UniProt O14929),inactive: 0

row,Target,dose-dependent thermal stabilisation call
1,HSPA9 (UniProt P38646),inactive: 0
2,HISPPD2A (UniProt Q6PFW1),inactive: 0
3,HINT3 (UniProt Q9NQE9),inactive: 0
4,GSN (UniProt P06396),inactive: 0
5,GOPC (UniProt Q9HD26),inactive: 0
6,HSD17B12 (UniProt Q53GQ0),inactive: 0
7,HSPA4L (UniProt O95757),inactive: 0
8,GOSR2 (UniProt O14653),inactive: 0
9,HSD17B4 (UniProt P51659),inactive: 0
10,HICE1 (UniProt Q9BT25),inactive: 0
11,GSR (UniProt P00390),inactive: 0
12,GOLGA3 (UniProt Q08378),inactive: 0
13,HIGD2A (UniProt Q9BW72),inactive: 0
14,HSDL2 (UniProt Q6YN16),inactive: 0
15,HSPA5 (UniProt P11021),inactive: 0
16,GTPBP5 (UniProt Q9H4K7),inactive: 0
17,HCG_2004593,inactive: 0
18,HINT1 (UniProt P49773),inactive: 0
19,HSD17B7 (UniProt P56937),inactive: 0
20,HPS5 (UniProt Q9UPZ3),inactive: 0

# Given with bars between the fields: part of the list above.
row | Target | dose-dependent thermal stabilisation call
11 | GSR (UniProt P00390) | inactive: 0
19 | HSD17B7 (UniProt P56937) | inactive: 0
